# Results as given in publication PMC8202330, “Phosphorylation of the LIR Domain of SCOC Modulates ATG8 Binding Affinity and Specificity” (Journal of Molecular Biology, 2021).
# Amino acid sequences for entries named in this document (tags omitted). A change or cut given only in a name is not applied to a line headed by its entry. Chains listed by the source or under a name are the forms on record and can include a tag or linker. Residues count along the entry.
# UniProt Q9BXW4, residues 1-126: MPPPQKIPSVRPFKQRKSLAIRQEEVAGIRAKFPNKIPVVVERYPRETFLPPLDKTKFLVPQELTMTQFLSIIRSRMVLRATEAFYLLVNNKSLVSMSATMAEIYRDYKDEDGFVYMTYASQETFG
# UniProt P60520: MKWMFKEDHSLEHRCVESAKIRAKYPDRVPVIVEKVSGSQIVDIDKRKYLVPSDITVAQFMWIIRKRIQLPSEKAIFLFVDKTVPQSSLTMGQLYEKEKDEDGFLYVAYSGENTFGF
# MYC-SCOC (isoform 3) WT (Q9UIL1-3, form named): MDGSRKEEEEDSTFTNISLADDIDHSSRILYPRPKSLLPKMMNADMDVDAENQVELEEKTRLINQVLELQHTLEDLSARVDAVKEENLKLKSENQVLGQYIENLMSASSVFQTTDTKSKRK
# MYC-SCOC (isoform 3) S12E/S18E (Q9UIL1-3, form named): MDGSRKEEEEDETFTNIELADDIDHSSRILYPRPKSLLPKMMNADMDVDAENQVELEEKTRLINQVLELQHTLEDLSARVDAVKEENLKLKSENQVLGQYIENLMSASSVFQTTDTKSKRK
# MYC-SCOC (isoform 3) S12E/T13E/T15E/S18E (Q9UIL1-3, form named): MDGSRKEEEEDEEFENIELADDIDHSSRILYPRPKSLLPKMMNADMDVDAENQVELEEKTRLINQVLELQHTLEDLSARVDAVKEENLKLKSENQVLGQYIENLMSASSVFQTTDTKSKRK
# MYC-SCOC (isoform 3) S18E (Q9UIL1-3, form named): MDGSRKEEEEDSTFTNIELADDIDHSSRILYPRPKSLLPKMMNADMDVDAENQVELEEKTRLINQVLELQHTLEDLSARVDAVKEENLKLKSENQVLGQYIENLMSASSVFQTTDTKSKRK
# UniProt Q8TDY2: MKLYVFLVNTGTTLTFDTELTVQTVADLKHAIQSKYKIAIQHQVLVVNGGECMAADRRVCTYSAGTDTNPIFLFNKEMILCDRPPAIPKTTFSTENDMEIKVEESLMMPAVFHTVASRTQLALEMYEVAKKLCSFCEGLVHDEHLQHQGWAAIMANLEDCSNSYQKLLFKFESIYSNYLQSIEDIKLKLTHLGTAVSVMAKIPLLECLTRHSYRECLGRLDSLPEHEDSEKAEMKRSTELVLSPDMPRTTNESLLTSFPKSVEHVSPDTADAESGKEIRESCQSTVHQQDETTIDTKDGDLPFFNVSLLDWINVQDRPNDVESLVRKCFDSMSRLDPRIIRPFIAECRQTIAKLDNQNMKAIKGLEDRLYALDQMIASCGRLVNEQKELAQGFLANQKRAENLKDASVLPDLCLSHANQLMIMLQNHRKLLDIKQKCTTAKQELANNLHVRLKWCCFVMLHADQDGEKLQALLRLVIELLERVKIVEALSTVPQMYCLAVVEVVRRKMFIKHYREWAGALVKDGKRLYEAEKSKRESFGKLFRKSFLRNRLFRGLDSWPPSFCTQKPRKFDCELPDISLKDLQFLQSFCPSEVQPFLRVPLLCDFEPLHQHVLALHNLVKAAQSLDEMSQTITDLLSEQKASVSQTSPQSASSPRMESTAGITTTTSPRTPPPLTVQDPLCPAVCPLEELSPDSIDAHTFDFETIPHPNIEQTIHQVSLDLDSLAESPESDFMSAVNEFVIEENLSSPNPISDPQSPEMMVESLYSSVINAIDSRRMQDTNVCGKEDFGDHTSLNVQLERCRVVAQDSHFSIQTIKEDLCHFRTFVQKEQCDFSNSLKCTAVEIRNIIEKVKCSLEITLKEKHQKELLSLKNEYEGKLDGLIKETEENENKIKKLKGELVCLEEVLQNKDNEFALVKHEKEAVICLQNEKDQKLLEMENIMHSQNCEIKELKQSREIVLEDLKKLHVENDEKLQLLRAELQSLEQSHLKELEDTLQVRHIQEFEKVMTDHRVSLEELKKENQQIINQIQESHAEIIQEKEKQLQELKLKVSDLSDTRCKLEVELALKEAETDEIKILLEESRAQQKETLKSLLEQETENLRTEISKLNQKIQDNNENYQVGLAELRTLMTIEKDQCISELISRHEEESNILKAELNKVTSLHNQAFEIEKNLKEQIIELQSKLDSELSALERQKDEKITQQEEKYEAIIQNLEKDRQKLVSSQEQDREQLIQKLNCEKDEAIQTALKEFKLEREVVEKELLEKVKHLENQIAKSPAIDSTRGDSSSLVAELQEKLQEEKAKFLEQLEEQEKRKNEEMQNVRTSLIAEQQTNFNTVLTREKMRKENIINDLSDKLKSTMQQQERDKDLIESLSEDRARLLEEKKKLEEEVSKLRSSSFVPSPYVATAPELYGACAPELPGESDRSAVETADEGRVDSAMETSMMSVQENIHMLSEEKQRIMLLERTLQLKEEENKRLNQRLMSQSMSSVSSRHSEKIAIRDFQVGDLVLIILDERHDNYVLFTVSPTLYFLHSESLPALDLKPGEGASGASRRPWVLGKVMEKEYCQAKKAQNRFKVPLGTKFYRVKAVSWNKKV
# UniProt O95166: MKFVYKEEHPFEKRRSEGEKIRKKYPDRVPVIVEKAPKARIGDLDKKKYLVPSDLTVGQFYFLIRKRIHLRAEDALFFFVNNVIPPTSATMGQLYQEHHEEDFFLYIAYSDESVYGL
# These are yes or no findings as the source states them, for the method shown. For some assays here: Binding seen in cells or lysates may run through a third protein. Some entries that bind do so weakly or less than the wild type. For some assays here: Tags and fused reporters may be left off the sequences shown.
# Legend:
# [1] = target: GST-LC3C (human) (UniProt Q9BXW4); assay: pull-down; GST-ATG8 proteins immobilized on Glutathione Sepharose beads; in vitro translated 35S-labelled GFP-SCOC in NET-N buffer (20 mM Tris-HCl pH 8.0, 100 mM NaCl, 1 mM EDTA, 0.5% Nonidet P-40); autoradiography; only the target purified
# [2] = target: GST-GABARAPL2 (human) (UniProt P60520); assay: as above
# [3] = target: GST-LC3A (human) (UniProt Q9H492); assay: as above
# [4] = target: GFP-LC3A (UniProt Q9H492); assay: co-IP; GFP-Trap IP; MYC-SCOC and GFP-ATG8 overexpressed separately in HEK293A, lysates mixed before the IP; TNTE buffer (0.5% Triton X-100), overnight at 4 °C
# [5] = target: SCOC pS12 LIR peptide (human); assay: BLI; biotinylated LIR peptide immobilized on streptavidin biosensor, ATG8 in solution; 25 mM Tris pH 7.5, 150 mM NaCl, 0.5 mM TCEP, 0.1% Tween20, 1 mg/ml BSA; 25 °C; Kd from response against concentration; both purified
# [6] = target: SCOC pS18 LIR peptide (human); assay: as above
# [7] = target: SCOC pT15 LIR peptide (human); assay: as above
# [8] = target: SCOC aa 11–25/pS12 LIR peptide (human); assay: as above
# [9] = target: T1, GFP-FEZ2 (human (cDNA from a HeLa library)) (UniProt Q9UHY8); assay: co-IP; GFP-Trap IP of GFP-tagged proteins from HEK293A cells in full medium or starved 2 h in EBSS; blots for endogenous ULK1, ATG13, FIP200; TNTE buffer A (1% Triton X-100)
# T1 sequence: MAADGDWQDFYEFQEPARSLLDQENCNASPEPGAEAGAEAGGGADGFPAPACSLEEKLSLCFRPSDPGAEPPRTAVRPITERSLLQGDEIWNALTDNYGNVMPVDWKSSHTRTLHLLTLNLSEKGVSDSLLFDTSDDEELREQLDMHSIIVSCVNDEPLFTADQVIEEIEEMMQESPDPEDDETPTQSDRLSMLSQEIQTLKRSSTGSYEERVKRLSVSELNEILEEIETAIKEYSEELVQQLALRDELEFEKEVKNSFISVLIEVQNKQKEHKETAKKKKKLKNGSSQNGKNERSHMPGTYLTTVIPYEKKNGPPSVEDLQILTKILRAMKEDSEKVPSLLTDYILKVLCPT
# [10] = target: GFP-SCOC (isoform 3), in HEK293A (human) (UniProt Q9UIL1); assay: as above
# [11] = target: T2, FEZ1-GFP (UniProt Q99689); assay: as above
# T2 sequence: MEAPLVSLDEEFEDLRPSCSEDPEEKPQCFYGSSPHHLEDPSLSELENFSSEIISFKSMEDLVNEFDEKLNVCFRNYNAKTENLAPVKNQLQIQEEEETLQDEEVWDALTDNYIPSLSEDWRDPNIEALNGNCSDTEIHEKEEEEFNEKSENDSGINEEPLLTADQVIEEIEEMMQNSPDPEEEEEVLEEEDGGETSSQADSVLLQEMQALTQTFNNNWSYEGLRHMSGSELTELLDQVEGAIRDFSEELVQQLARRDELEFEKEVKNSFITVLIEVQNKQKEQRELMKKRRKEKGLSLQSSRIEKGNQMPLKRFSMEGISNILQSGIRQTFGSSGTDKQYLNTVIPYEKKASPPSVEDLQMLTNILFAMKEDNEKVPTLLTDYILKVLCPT
# [12] = target: T3, SCOC pT13 LIR peptide (human); assay: BLI; biotinylated LIR peptide immobilized on streptavidin biosensor, ATG8 in solution; 25 mM Tris pH 7.5, 150 mM NaCl, 0.5 mM TCEP, 0.1% Tween20, 1 mg/ml BSA; 25 °C; Kd from response against concentration; both purified
# T3 sequence (peptide, phosphothreonine at 13; biotin-linker on the N-terminus; C-terminal amide): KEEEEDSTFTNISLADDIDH
Substance,binding [4],binding [6],binding [7],binding [8],binding [12],further results
"GFP-SCOC (isoform 3) wild-type, in vitro translated (from UniProt Q9UIL1-3 1-121)",,,,,,binding [1]: binds; binding [2]: binds weakly; binding [3]: binds
MYC-SCOC (isoform 3) S12E/S18E (from UniProt Q9UIL1-3 1-121),binds,,,,,
LC3A (for BLI) (from UniProt Q9H492 1-121),,binds,binds,binds,,binding [5]: binds
FIP200 (endogenous) (from UniProt Q8TDY2 1-1594),,,,,,binding [9]: binds; binding [10]: no binding; binding [11]: binds
MYC-SCOC (isoform 3) S12E/T13E/T15E/S18E (from UniProt Q9UIL1-3 1-121),binds,,,,,
MYC-SCOC (isoform 3) S18E (from UniProt Q9UIL1-3 1-121),binds,,,,,
GABARAP (for BLI) (from UniProt O95166 1-117),,binds,binds,binds,binds,
MYC-SCOC (isoform 3) WT (from UniProt Q9UIL1-3 1-121),binds,,,,,
LC3C (for BLI) (from UniProt Q9BXW4 1-126),,binds,binds,binds,binds,binding [5]: binds
GABARAPL2 (for BLI) (from UniProt P60520 1-117),,binds weakly,binds weakly,,binds weakly,
